Test results published in patent publication US11898097B2, “Modified acid compositions as alternatives to conventional acids in the oil and gas industry” (priority 2017, dated 2024).
Several values for one entry are separate records, joined by “and”; a condition that tells them apart may be missing. Equal entries are not always repeated. Structures can show the parent of a compound that is named as a salt.

Experiments:
[1] = Comparative corrosion testing on 1018 steel coupons; conditions: 110° C., 6 hours, corrosion package none
[2] = Dissolution testing, calcium carbonate; conditions: 23° C.
[3] = Wormholing testing (matrix acidizing experiments); conditions: optimal condition, Buijse and Glasbergen model fit

Structure (SMILES) | Loss wt. [1] | Mils/yr [1] | mm/year [1] | Weight Loss/g ([2]; listed as HCl 15%) | PVbt-opt (optimal pore volume to breakthrough) [3] | Vi-opt (optimal interstitial velocity) [3] | Weight Loss/g [2]
Cl [15% HCl, hydrochloric acid] | 25.722 g | 45436.180 Mils/yr | 1154.079 mm/year | 10.7119 g and 9.5133 g | 0.46 | 1.97 | –
Cl [HCl 28%, hydrochloric acid] | – | – | – | – | – | – | 19.011 g and 21.16 g
